Measurements as given in PubChem BioAssay AID1487 (National Center for Advancing Translational Sciences (NCATS), 2009).
This is one part of the list. Further columns of the screen follow, without active or inactive calls. The list favours compounds with an active or inconclusive main result. The note in brackets gives the kind of curve behind each potency; many fits are weak.

Experiment: qHTS Assay for Modulators of Lamin A Splicing
Conditions: HeLa LMNA splicing GFP/RFP minigene ratio, 48 h
Summary of the method: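 S3 HeLa cells stably expressing lamin A-EGFP splicing minigene plus DsRed2, 600 cells/well, 48 h compound exposure at 37C. Laser-scanning cytometry; analysed as GFP (500-530 nm)/RFP (575-640 nm) total intensity ratio; 0.5% DMSO vehicle.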

[1] = measured here: RFP viability control channel
[2] = measured here: GFP splicing reporter channel

| Compound | AC50 [1] | AC50 [2] |
| --- | --- | --- |
| COc1ccc(/C=C/C(=O)OCC(=O)c2c(C)[nH]c3ccccc23)cc1OC | 11.2 µM [rising, partial curve] | – |
| CC(=O)N1CCN(c2ccc(Oc3nnnn3-c3ccccc3)cc2)CC1 | 15.8 µM [rising, single point] | – |
| O=C(CSc1n[nH]c(-c2ccccc2Cl)n1)NCCCc1ccccc1 | – | 1.58 µM [rising, partial curve] |
| Fc1ccc(/C=C2\CCCC3=C2Nc2ncnn2C3c2ccc(F)cc2)cc1 (stereo not given) | 35.5 µM [falling, single point] | – |
| C/C(=N\Nc1ccc(S(=O)(=O)N2CCOCC2)cc1[N+](=O)[O-])C(C)C | 12.6 µM [rising, partial curve] | 0.0316 µM [rising, full curve, poor fit] |
| Cc1cc(=O)c2cc(Br)ccc2[nH]1 | 35.5 µM [rising, single point] | – |
| CCCCc1nnc(SCc2ccc(OCC)cc2)n1N | 0.141 µM [rising, full curve, poor fit] | – |
| CN(C)S(=O)(=O)c1cccc(NC(=O)COC(=O)c2cc(=O)c3ccccc3o2)c1 | 11.2 µM [falling, partial curve] | – |
| CC(=O)c1cccc(NC(=O)C2CCN(c3ncnc4c3nc3n4CCCCC3)CC2)c1 | 25.1 µM [rising, single point] | – |
| Fc1ccccc1/C=N/NC(=S)Nc1ccc(Cl)cc1Cl | 5.62 µM [rising, partial curve] | 2.24 µM [rising, partial curve, poor fit] |
| O=C(NC1CCCCC1)C(c1ccncc1)N(Cc1ccccc1)C(=O)c1ccc(-c2ccccc2)[nH]1 (stereo not given) | 0.0316 µM [falling, single point] | 14.1 µM [falling, single point] |
| COc1cc(-c2nnc(Sc3ccc(C(F)(F)F)cc3[N+](=O)[O-])o2)cc(OC)c1OC | 11.2 µM [rising, partial curve] | – |
| Clc1ccc(CN2CCN(c3ncnc4sc5c(c34)CCCC5)CC2)cc1Cl | 35.5 µM [rising, single point] | – |
| COc1ccc(NC(=O)CCC2CCCCC2)cc1S(=O)(=O)N1CCCCC1 | 10 µM [rising, partial curve] | – |
| CCn1c(CN2CCN(c3ccc(Cl)cc3)CC2)nc2ccccc21 | 14.1 µM [rising, single point] | – |
| O=C(COc1ccc(Cl)cc1Cl)NCc1ccco1 | – | 17.8 µM [rising, single point] |
| CCNc1ccc(S(=O)(=O)N(C)C)cc1NCC(=O)Nc1ccc(Br)cc1F | 8.91 µM [rising, partial curve] | – |
| Cc1cccc(/C=C/c2nc3ccccc3c(=O)[nH]2)c1 | 3.98 µM [rising, single point] | – |
| CC(C)=CCSc1nnc([C@@H](NC(=O)OC(C)(C)C)C(C)C)o1 | 14.1 µM [rising, partial curve] | 14.1 µM [rising, partial curve, poor fit] |
| C/C=C(/C(=C/C)c1ccc(O)cc1)c1ccc(O)cc1 | 2 µM [rising, full curve, poor fit] | 5.01 µM [rising, partial curve, poor fit] |
| COc1ccc(C2c3[nH]c4ccccc4c3CCN2C(=O)CCC2CCCC2)cc1 (stereo not given) | 20 µM [rising, single point] | 4.47 µM [falling, full curve, poor fit] |
| CCN(CC)C(=O)c1sc2c(c1C)c(=O)n(-c1ccc(C)c(C)c1)c(=O)n2Cc1cc(=O)n2ccccc2n1 | 35.5 µM [falling, partial curve, poor fit] | – |
| CC1Cc2ccccc2N1C(=O)c1nn(C)cc1Br (stereo not given) | 25.1 µM [rising, single point] | – |
| CC(Cc1cccs1)NC(=S)Nc1ccc(F)cc1 (stereo not given) | 12.6 µM [rising, partial curve, poor fit] | 15.8 µM [rising, partial curve, poor fit] |
| COC(=O)[C@@]1(Cc2ccc(F)cc2)[C@H]2c3cc(C(=O)N(C)C)n(CCc4ccc(OC)c(Br)c4)c3C[C@H]2CN1C(=O)c1ccccc1 | 20 µM [rising, partial curve, poor fit] | 8.91 µM [rising, partial curve, poor fit] |
| Cc1ccc2sc(N(Cc3cccnc3)C(=O)CCS(=O)(=O)c3ccccc3)nc2c1C | 10 µM [falling, partial curve] | 4.47 µM [falling, full curve] |
| COc1ccc2oc3cc(C)[n+]([O-])c(-c4ccc(C)cc4)c3c2c1 | 35.5 µM [rising, single point] | – |

| Compound | AC50 [1] | AC50 [2] |
| --- | --- | --- |
| CCN(CC)c1ccc2cc(S(=O)(=O)c3ccc(Cl)cc3)c(=O)oc2c1 | 17.8 µM [rising, partial curve] | 8.91 µM [rising, partial curve, poor fit] |
| O=C1NCC(c2ccccc2)C1C(=O)N/N=C\c1ccc(-c2cccc(Cl)c2Cl)o1 (stereo not given) | 15.8 µM [rising, single point] | 35.5 µM [rising, single point] |
| O=c1nc(-c2ccccc2)cn[nH]1 | – | 7.08 µM [rising, full curve, poor fit] |
| CCC(Sc1nc2c(sc3ccccc32)c(=O)n1CCc1ccc(OC)c(OC)c1)C(=O)N(CC)CC (stereo not given) | 17.8 µM [rising, single point] | 22.4 µM [rising, single point] |
| CCn1ncc(/C=C/C(=O)Nc2c(C)nn(Cc3ccc(Cl)cc3Cl)c2C)c1C | 20 µM [falling, single point] | 35.5 µM [falling, single point] |
| Cc1ccc(C(C)C)c(OCc2ccc(C(=O)N/N=C/c3cccc(O)c3O)cc2)c1 | 15.8 µM [rising, partial curve] | 10 µM [rising, partial curve] |
| NC(=O)C1CCN(CCC(=O)Nc2ccc(Br)cc2)CC1 | 5.62 µM [rising, single point] | – |
| CCC(C(=O)NC(C)CCc1ccccc1)n1nc(C)n2c(cc3occc32)c1=O (stereo not given) | 22.4 µM [rising, single point] | 12.6 µM [rising, partial curve, poor fit] |
| C=CCn1c(SCC(=O)Nc2sccc2C(N)=O)nc2ccc(Cl)cc2c1=O | 7.08 µM [rising, full curve, poor fit] | – |
| O=C(Nc1ccc(-c2nc3ccccc3o2)cc1)c1cccnc1 | – | 2 µM [rising, partial curve] |
| CN(C)CCCN(C(=O)CCOc1ccccc1)c1nc2ccc(F)cc2s1 | 3.16 µM [falling, single point] | – |
| COc1ccccc1C1C2=C(N=C3SCC(=O)N31)c1ccccc1CC2 (stereo not given) | – | 22.4 µM [rising, single point] |
| COC(=O)c1ccc(-c2nc(O)c(C)s2)cc1 | 0.112 µM [rising, full curve] | – |
| Cc1c(C(=O)N/N=C/c2cccnc2)sc(=S)n1C | 3.55 µM [rising, full curve, poor fit] | – |
| Cc1ccc(O)c(N=Cc2sc3ccccc3c2Cl)c1 | 15.8 µM [rising, partial curve] | – |
| CC1(C(=O)Nc2cccc(C(F)(F)F)c2)CO1 (stereo not given) | 0.282 µM [rising, full curve, poor fit] | 0.00282 µM [rising, full curve, poor fit] |
| NCC[C@H](O)C(=O)N[C@H]1C[C@@H](N)[C@@H](O[C@H]2O[C@@H](CN)[C@@H](O)[C@@H](O)[C@@H]2O)[C@@H](O)[C@@H]1O[C@H]1O[C@@H](CO)[C@@H](O)[C@@H](N)[C@@H]1O | 0.398 µM [falling, full curve] | 0.398 µM [falling, full curve] |
| NNC(=O)CS(=O)(=O)CS(=O)(=O)CC(=O)NN | 0.398 µM [falling, partial curve, poor fit] | 22.4 µM [falling, partial curve, poor fit] |
| C[N+](C)(C)CC(O)CC(=O)O (stereo not given) | – | 0.708 µM [rising, partial curve] |
| CC1=C(C(=O)c2ccccc2)C(c2cccc([N+](=O)[O-])c2)NC(=S)N1 (stereo not given) | 1.78 µM [rising, partial curve] | – |
| O=[N+]([O-])c1cc(/C=N/n2cnnc2)ccc1N1CCCC1 | 3.16 µM [falling, full curve] | 5.01 µM [falling, single point] |
| Cc1cccc(N2C(=O)C(Oc3ccc(Cl)cc3Cl)C2C=O)c1C (stereo not given) | 22.4 µM [falling, single point] | 6.31 µM [rising, single point] |
| COc1ccc(CC(=O)N2CCN=C2SC)cc1OC | 0.158 µM [rising, full curve, poor fit] | 0.158 µM [rising, full curve] |
| Cc1cc(NC(=O)CSCc2ccccc2C)no1 | – | 0.141 µM [rising, partial curve, poor fit] |
| CC(=O)c1ccc2noc(-c3cccc(C)c3)c2c1 | – | 2.24 µM [falling, single point] |
| Cc1noc(C)c1-c1ccc2ncnc(NC3CCNCC3)c2c1 | – | 12.6 µM [falling, partial curve] |
| COc1ccc(C(=O)Nc2cccc(C(=O)OCc3cc(=O)n4nc(C5CC5)sc4n3)c2)cc1 | – | 6.31 µM [falling, full curve] |

Reprinted at random: three entries already listed, in no set order.

| Compound | AC50 [1] | AC50 [2] |
| --- | --- | --- |
| C/C(=N\Nc1ccc(S(=O)(=O)N2CCOCC2)cc1[N+](=O)[O-])C(C)C | 12.6 µM [rising, partial curve] | 0.0316 µM [rising, full curve, poor fit] |
| CC(=O)c1ccc2noc(-c3cccc(C)c3)c2c1 | – | 2.24 µM [falling, single point] |
| CCC(C(=O)NC(C)CCc1ccccc1)n1nc(C)n2c(cc3occc32)c1=O (stereo not given) | 22.4 µM [rising, single point] | 12.6 µM [rising, partial curve, poor fit] |
